Reference: article PMC5524322, “Species A rotavirus NSP3 acquires its translation inhibitory function prior to stable dimer formation” (PLoS ONE, 2017)
Results are given in words; binding and its absence hold for the method and conditions named. Some results given as binding are weak or reduced against the parent protein; the word gives no strength.

Assays:
[1] = target: NSP3 K171E of rotavirus strain RRV (simian rotavirus A strain RRV) (UniProt Q8UZL8); experiment: non-dissociating Western blot (WB-ND); lysates of vaccinia-infected BSC-1 cells (18 hpi) mixed with 2x non-dissociating sample buffer (62.5 mM Tris-HCl pH 6.8, 0.8% SDS, 20% glycerol), 30 min on ice, not boiled; 12% SDS-PAGE in a cold room; blot with anti-NSP3 rat serum; stable dimer band (68 kDa) told apart from monomer/dimerization intermediate band (34 kDa); cells with MG132 or DMSO, in one experiment with cycloheximide
[2] = target: NSP3 Y192A of rotavirus strain RRV (simian rotavirus A strain RRV) (UniProt Q8UZL8); experiment: as above

| Substance | binding [1] | binding [2] |
| --- | --- | --- |
| NSP3 K171E of rotavirus strain RRV (from UniProt Q8UZL8 4-313) | binds | – |
| NSP3 Y192A of rotavirus strain RRV (from UniProt Q8UZL8 4-313) | – | binds |
